Measured values taken from PMC11653682.

Biological target: T1, aspartate aminotransferase (GOT2) (not stated (cells of the IP not named; H9C2 in the neighbouring experiments)) (UniProt P00507)
T1 sequence: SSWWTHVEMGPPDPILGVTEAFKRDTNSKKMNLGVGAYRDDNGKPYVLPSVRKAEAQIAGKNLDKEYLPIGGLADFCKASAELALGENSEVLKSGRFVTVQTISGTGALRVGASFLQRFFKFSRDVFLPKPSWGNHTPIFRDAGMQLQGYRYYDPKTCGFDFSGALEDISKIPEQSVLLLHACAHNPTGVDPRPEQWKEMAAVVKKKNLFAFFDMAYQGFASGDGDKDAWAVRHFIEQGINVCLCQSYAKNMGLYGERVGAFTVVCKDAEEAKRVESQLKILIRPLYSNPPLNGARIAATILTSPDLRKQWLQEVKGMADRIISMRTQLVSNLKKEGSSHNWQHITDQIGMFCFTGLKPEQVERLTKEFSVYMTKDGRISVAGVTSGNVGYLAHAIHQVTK
Experiment: co-IP; IP of GOT2, partners detected by Western blotting; cells not named; X-ray or aloe emodin treatment

binding: binds
Substance: ATG16L

No constants are given. Whether binding was seen depends on the method and setting. Binding seen in cells or lysates may run through a third protein. Binding calls can cover weak binding; strength is not graded here.
